The values that follow come from the supplement of paper PMC12067093, “Discovery and optimisation of a covalent ligand for TRIM25 and its application to targeted protein ubiquitination” (Chemical Science, 2025).

The other results are listed elsewhere or left out.

Compound in the assay: CC1Cc2ccccc2N1C(=O)C1CCCN(C1)C(=O)CCl (mixture of isomers) [TRIM25 ligand 11 (diastereomer mixture)]
Kind of assay: probe-labelled cysteine peptide fold change vs DMSO (competition) (log2 fold change); higher = less target engagement (more negative = stronger competition). The note with it: THP-1, incubation time: 4 h.
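Also: competitive chemoproteomic profiling in live THP-1 cells with an iodoacetamide desthiobiotin (IA-DTB) probe, comparing probe-labelled peptide intensities in compound-treated cells against DMSO-treated controls.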

In the case of “PPP6R2_O75170_665_FGAPHASESCSK (UniProt O75170)”, the “probe-labelled cysteine peptide fold change” value is, setting by setting: (10 µM) -0.0129; (50 µM) -0.472.

With “PPP6R2_O75170_216_QSNASQTLCDIVR (UniProt O75170)”, the “probe-labelled cysteine peptide fold change” value reads like this: (10 µM) 0.0682; (50 µM) 0.239.

As for “PPP1R3D_O95685_60_APPPTPAPSGCDPR (UniProt O95685)”, the “probe-labelled cysteine peptide fold change” value was 0.1 (10 µM) and -0.0224 (50 µM).

Take “PPP2R5A_Q15172_72_DATSNEQQELFCQK (UniProt Q15172)”: the “probe-labelled cysteine peptide fold change” value is, setting by setting: (10 µM) 0.0295; (50 µM) 0.0832.

In the case of “PPP4C_P60510_266_CGNVAAILELDEHLQK (UniProt P60510)”, the “probe-labelled cysteine peptide fold change” value is, setting by setting: (10 µM) 0.104; (50 µM) 0.112.

Turning to “PRDX3_P30048_127_ANEFHDVNCEVVAVSVDSHFSHLAWINTPR (UniProt P30048)”, the “probe-labelled cysteine peptide fold change” value was determined as 0.407 (10 µM) and 0.0242 (50 µM).

On to PPIG_Q13427_63_SCLFHR (UniProt Q13427), for which the “probe-labelled cysteine peptide fold change” value was -0.0907 (10 µM) and -0.0397 (50 µM).

As to “PPP3CA_Q08209_88_NLLDIDAPVTVCGDIHGQFFDLMK (UniProt Q08209)”, the “probe-labelled cysteine peptide fold change” value reads like this: (10 µM) 0.14; (50 µM) -0.0609.

Regarding “PPP1R3D_O95685_279_YQVAGAEYWDNNDHRDYSLTCR (UniProt O95685)”, the “probe-labelled cysteine peptide fold change” value is, setting by setting: (10 µM) -0.0121; (50 µM) -0.0615.

With “PPP2R1A_P30153_310+317_EFCENLSADCR (UniProt P30153)”, the “probe-labelled cysteine peptide fold change” value by setting is: (10 µM) 0.0915; (50 µM) -0.0288.

Take “PPP1CC_P36873_202_PTDVPDQGLLCDLLWSDPDK (UniProt P36873)”: the “probe-labelled cysteine peptide fold change” value (10 µM) is -0.0232 and the “probe-labelled cysteine peptide fold change” value (50 µM) was found to be 0.0737.

On to “PPME1_Q9Y570_238_QCEGITSPEGSK (UniProt Q9Y570)”, for which the “probe-labelled cysteine peptide fold change” value is, setting by setting: (10 µM) 0.0265; (50 µM) -0.209.

“PPP6R2_O75170_769_CSSPVDTECSHAEGSR (UniProt O75170)”: the “probe-labelled cysteine peptide fold change” value runs as follows: (10 µM) 0.0369; (50 µM) -0.0705.

On to “PRDX1_Q06830_71+83_KLNCQVIGASVDSHFCHLAWVNTPK (UniProt Q06830)”, for which the “probe-labelled cysteine peptide fold change” value was -0.00206 (10 µM) and 0.141 (50 µM).
